Patent US12728116B2, “Methods of treating multiple sclerosis” (Vanda Pharmaceuticals Inc., priority 2021, dated 2026)

System: adult subjects with relapsing MS
Test: Premature treatment discontinuation
Format: in vivo
Procedure: A total of 1468 subjects were screened. Of those, 1133 subjects were randomized (567 to ponesimod 20 mg and 566 to teriflunomide 14 mg) across 162 sites in 28 countries, and 1131 subjects received at least one dose of study drug. The disposition of subjects is summarized in Table 1 and a summary of reasons (primary reason) for treatment discontinuation are shown in Table 2. Overall treatment and study discontinuation were balanced across both treatment arms. A total of 6.5% and 2.5% of the subjects discontinued due to AEs or tolerability related reasons in ponesimod 20 mg and teriflunomide 14 mg, respectively, while 1.9% and 4.3% discontinued due to efficacy related reasons. There were 2 deaths reported during the study—both on teriflunomide 14 mg.

With `CCC/N=C1\S/C(=C\c2ccc(OC[C@H](O)CO)c(Cl)c2)C(=O)N1c1ccccc1C` [Ponesimod, (R)-5-[3-chloro-4-(2,3-dihydroxy-propoxy)-benz[Z]ylidene]-2-([Z]-propylimino)-3-o-tolyl-thiazolidin-4-one] the “Premature discontinuation: Physician decision, Lack of efficacy/treatment failure, %” value (Safety Set) was “(0.7) %”, the “Premature discontinuation: Subject decision, Efficacy related, %” value (Safety Set) was “(1.2) %” and the “Subjects who prematurely discontinued study treatment, %” value (Safety Set) was “(16.6) %”. For the same compound, the “Subjects discontinued due to efficacy related reasons” value (ponesimod 20 mg, teriflunomide 14 mg) was 1.9%.
